Source: PubChem BioAssay AID652243 (Drosophila RNAi Screening Center, 2013)
Purpose: 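Fly regulators of androgen-dependent reporter output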 (primary screen). Cell system: Drosophila S2R+ cells. Reagent: long dsRNA against Drosophila genes. Timing: 72 h (48 h, then 24 h hormone). Conditions: synthetic androgen R1881 at 10 nM for 24 h. Detection: 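Per-well raw luminescence of the androgen-driven firefly reporter and of the Renilla control, two replicates each, without normalisation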. Reading the numbers: firefly reporter light: higher = more light from androgen-responsive reporter; Renilla control light: higher = more constitutive control signal (cell number, transfection). Call rule: 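Hit when the log firefly-to-Renilla ratio dropped or increased by a fixed fold versus the mean of GFP or LacZ controls across duplicate plates; lowering cut given as 1.5 and as 3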. Meaning of the calls: active = hit: reporter lowered or raised; inactive = no hit.
The screen tested about 24,000 reagents; shown is a random part of those that have a named target and a result. In the full data, 246 (1%) were called active. 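Plates not normalised; calls are printed but the firefly/Renilla ratio behind them is not deposited; fold cut for lowering reported inconsistently.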 Raw values are not corrected between plates. The numbers tell different reagents against one gene apart. The record does not give: the amount of reagent.

For CG17019 the deposit lists firefly reporter light, replicate 1 = 9.13e5; firefly reporter light, replicate 2 = 9.37e5; Renilla control light, replicate 1 = 9.23e5; Renilla control light, replicate 2 = 1.36e6; inactive.
Depletion of CG6262 #1 resulted in: firefly reporter light, replicate 1 = 8.74e5; firefly reporter light, replicate 2 = 8.87e5; Renilla control light, replicate 1 = 1.88e6; Renilla control light, replicate 2 = 1.97e6; inactive.
CG6262 #2 showed firefly reporter light, replicate 1 = 5.63e5; firefly reporter light, replicate 2 = 5.94e5; Renilla control light, replicate 1 = 1.40e6; Renilla control light, replicate 2 = 1.17e6; inactive.
For CG34183, the entry reads firefly reporter light, replicate 1 = 7.26e5; firefly reporter light, replicate 2 = 7.28e5; Renilla control light, replicate 1 = 2.08e6; Renilla control light, replicate 2 = 1.80e6; inactive.
barc showed firefly reporter light, replicate 1 = 60377; firefly reporter light, replicate 2 = 62814; Renilla control light, replicate 1 = 5.05e5; Renilla control light, replicate 2 = 4.09e5; inactive.
After knock-down of l(2)k14505 the results were firefly reporter light, replicate 1 = 8.06e5; firefly reporter light, replicate 2 = 7.20e5; Renilla control light, replicate 1 = 2.10e6; Renilla control light, replicate 2 = 2.36e6; inactive.
RNF220 #1 gave firefly reporter light, replicate 1 = 1.25e5; firefly reporter light, replicate 2 = 1.53e5; Renilla control light, replicate 1 = 6.75e5; Renilla control light, replicate 2 = 8.75e5; inactive.
Silencing of RNF220 #2 came out at: firefly reporter light, replicate 1 = 6.76e5; firefly reporter light, replicate 2 = 5.08e5; Renilla control light, replicate 1 = 1.81e6; Renilla control light, replicate 2 = 1.09e6; inactive.
Against CG14442 the deposit lists firefly reporter light, replicate 1 = 8.63e5; firefly reporter light, replicate 2 = 1.11e6; Renilla control light, replicate 1 = 1.06e6; Renilla control light, replicate 2 = 9.51e5; inactive.

As entered above:
CG17019, outcome: inactive
For “firefly reporter light, replicate 1”, CG14442 is entered as 8.63e5

Continued:
CG14052 #1 gave firefly reporter light, replicate 1 = 4.65e5; firefly reporter light, replicate 2 = 3.42e5; Renilla control light, replicate 1 = 3.95e6; Renilla control light, replicate 2 = 3.20e6; inactive.
After knock-down of CG14052 #2, the screen gave firefly reporter light, replicate 1 = 4.63e5; firefly reporter light, replicate 2 = 4.89e5; Renilla control light, replicate 1 = 4.31e6; Renilla control light, replicate 2 = 4.23e6; inactive.
CG14052 #3 gave firefly reporter light, replicate 1 = 8.80e5; firefly reporter light, replicate 2 = 9.21e5; Renilla control light, replicate 1 = 1.22e6; Renilla control light, replicate 2 = 1.25e6; inactive.
For Dbp21E2 #1 the deposit lists firefly reporter light, replicate 1 = 5.66e5; firefly reporter light, replicate 2 = 4.78e5; Renilla control light, replicate 1 = 2.22e6; Renilla control light, replicate 2 = 1.77e6; inactive.
With knock-down of Dbp21E2 #2, the record shows firefly reporter light, replicate 1 = 1.94e5; firefly reporter light, replicate 2 = 3.83e5; Renilla control light, replicate 1 = 7.45e5; Renilla control light, replicate 2 = 1.05e6; inactive.
